For the experiment, the target named is human complement component C9 (human) (UniProt P02748). As to the kind of experiment: MST; both purified.

Amino acid sequences for entries named in this document (tags omitted). Residues count along the entry.
UniProt P02748, residues 22-559: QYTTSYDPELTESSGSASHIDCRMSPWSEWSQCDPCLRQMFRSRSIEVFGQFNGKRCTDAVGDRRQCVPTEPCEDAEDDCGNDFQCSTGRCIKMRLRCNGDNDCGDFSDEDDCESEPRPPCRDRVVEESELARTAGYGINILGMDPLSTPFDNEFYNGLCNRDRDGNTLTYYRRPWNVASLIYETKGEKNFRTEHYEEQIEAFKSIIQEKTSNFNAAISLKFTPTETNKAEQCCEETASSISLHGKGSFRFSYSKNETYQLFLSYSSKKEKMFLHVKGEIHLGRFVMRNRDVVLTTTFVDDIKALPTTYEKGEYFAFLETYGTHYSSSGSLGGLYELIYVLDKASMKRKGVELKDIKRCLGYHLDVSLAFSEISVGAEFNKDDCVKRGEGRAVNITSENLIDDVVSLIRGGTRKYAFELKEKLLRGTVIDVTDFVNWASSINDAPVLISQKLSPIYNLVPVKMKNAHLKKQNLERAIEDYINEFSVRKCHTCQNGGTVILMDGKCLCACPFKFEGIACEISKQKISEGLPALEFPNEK

Our source for the binding values is PMC7785802, “Therapeutic Efficacy of a Trichinella Spiralis Paramyosin-Derived Peptide Modified With a Membrane-Targeting Signal in Mice With Antigen-Induced Arthritis” (Frontiers in Microbiology, 2020).

No constants are given. Whether binding was seen depends on the method and setting.

With GKMSVMSVYKSVLS [control peptide (…)], the binding result is reported as “no binding (tested: 1.68 mM)”.
